The values below come from article PMC3846833.

Assay [1] addresses complete ORF of sheep MSV (aa 1-321) with a C-terminal V5-tag (rMSV-V5) (sheep). Put plainly: co-IP; as a3, with the muscle extract spiked with purified rMSV-V5; blot with anti-myostatin; only the target purified.
The target of assay [2] is myostatin splice variant (MSV), endogenous in sheep skeletal muscle (sheep (endogenous in semitendinosus muscle)). Briefly: co-IP; anti-MSV antibody beads in total protein extract of sheep semitendinosus muscle, 4°C, 18 h; 50 mM Tris-HCl pH 7.5, 100 mM NaCl, 0.1% Triton X-100; blot with anti-myostatin.

These are yes or no findings as the source states them, for the method shown. In cells and extracts the contact can be indirect. Binding calls can cover weak binding; strength is not graded here.

B1: mature myostatin, endogenous in sheep skeletal muscle (ligand, UniProt O18830 267-375)
chain: DFGLDCDEHSTESRCCRYPLTVDFEAFGWDWIIAPKRYKANYCSGECEFLFLQKYPHTHLVHQANPKGSAGPCCTPTKMSPINMLYFNGKEQIIYGKIPGMVVDRCGCS
Turning to B1, the binding entry in assay [1] and in assay [2] was “binds” throughout.
